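Whole-parasite assay of Trypanosoma brucei over 72 hours; the read-out is not stated. Compounds at 30 µM. Higher reads as stronger inhibition (inferred: compounds with an IC50 in retests scored well above the rest). Values scatter widely below zero; nearly all retest evidence comes from the higher of the two concentrations used. Size under these conditions: about 64,000 compounds, about 940 of them at 50% or above in at least one test.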

Values are the deposited “Percent Effect”, in %. The controls that fix the scale are not given in the record; negative values are as filed. This is an unselected part of the compounds tested.

- O=C(Nc1ccc(N2CCCC2)nc1)N1CCc2sccc2C1 | -81.72%
- Cn1ccnc1CN1CCCN(C(=O)C2(C#N)CCCCC2)CC1 | -32.74%
- [H][C@]12CCN(C(=O)C3CC=CC3)[C@@]1([H])CC[C@@H](COCC1CCOCC1)O2 | -34.81%
- [H][C@@]12CCC(=O)N(CCC3=CCCCC3)[C@]1([H])CCN(C1CCOCC1)C2 | 9.844%
- c1cncc(CN2CCC(c3ccnc4nccn34)C2)c1 (centres undefined) | 4.812%
- CC(COCC(F)(F)F)NC(=O)c1ccc(-c2ccco2)[nH]c1=O (centres undefined) | 12.87%
- CC1(C)CNC(=O)c2nc(-c3nnn[nH]3)[nH]c2C1 | -18.09%
- O=C(O)C(F)(F)F.O=C(O)C(F)(F)F.O=C1CC2(CCN(Cc3cccnc3)C2)CN1c1cccc(F)c1 (centres undefined) | -211.3%
- O=c1ccc2c(n1CCN1CCCC1)CCN(c1ncccn1)CC2 | -47.36%
- COc1ccc(N2CCNC(C(N)=O)C2)cc1 (centres undefined) | -0.176%
- Cl.O=C(NCc1ccc(Cl)cc1)N1CCN(CC(O)C2CC2)CC1 (centres undefined) | -8.991%
- CN1CCN(C(=O)c2ccc(=O)n(C)c2)Cc2ccccc21 | 27.61%
- COCCc1noc(CN2CCCC2c2c(C)nn(C)c2OC)n1 (centres undefined) | -11.83%
- CN(C)C(=O)COCc1cncc2c1CCN(Cc1ccccn1)C2.O=C(O)C(F)(F)F.O=C(O)C(F)(F)F | -50.95%
- Cc1cccc(NC2CCN(C(=O)Nc3cn[nH]c3)CC2)n1 | -6.373%
- COCc1noc(C2(c3cccc(Cl)c3)CCOCC2)n1 | -106.3%
- Cn1c(NC(=O)CNC(=O)C2CCCC2)nc2cc(Cl)ccc21 | 6.912%
- C=C(C)CN(CC)S(=O)(=O)c1c(F)cc(NC(C)=O)cc1F | -3.671%
- CN(Cc1ccoc1)C(=O)C1CCN(C(=O)C2CCCC2)CC1 | -11.49%
- N#Cc1csc(CN(CC(=O)N2CCCC2)CC2CCCO2)c1 (centres undefined) | -20.63%
- O=C(NCCN1CCOCC1)c1ccc(OCc2ccccc2)nc1 | -7.523%
- CN(Cc1ccccc1)CC(C)(C)NC(=O)c1cnns1 | -9.33%
- N#Cc1c2n(c3c(=O)[nH]cnc13)CCCC2 | -59.85%
- Cn1[nH]c(CNc2cccc(Cl)c2)nc1=O | -21.54%
- CCN(CC1CCCN(CCc2cccc(OC)c2)C1)C(=O)CN(C)C (centres undefined) | -11.43%
- O=C(O)C(F)(F)F.O=C1CC[C@]2(CC[C@@H](NC3CCOCC3)CC2)N1Cc1ccccc1 | -24.16%
- CN(Cc1ccco1)C(=O)CN1CCCC(Cn2cncn2)C1 (centres undefined) | 12.6%
- O=C1CC(c2ccncc2)C2(CCN(CCO)CC2)N1 (centres undefined) | 8.222%
- O=C(c1sccc1Br)N1CCOCC1 | -29.47%
- Cc1cc(-c2nn(C)c(Cl)c2CN2CCC3(CC2)[C@H](O)C[C@@H]3O)no1 | -10.27%
- O=C(O)CC1COCCN1CCCc1ccccc1 (centres undefined) | -36.42%
- CN(Cc1ccccn1)C1CCCN(c2cccnn2)C1 (centres undefined) | -30.26%
- Cc1ncsc1-c1nnc(C2CCCN2C(=O)CCn2cccn2)o1 (centres undefined) | 21.42%
- CNc1oc(-c2ccc(S(=O)(=O)N(C)C)o2)nc1C#N | -28.85%
- [H][C@@]12CC(=O)/C(=C(\C)NC(=O)c3ccccn3)[C@]1([H])C2(C)C | -48.32%
- COc1ccc(-c2nnc(C(C)N3CCOC(C)(C)C3)o2)cc1 (centres undefined) | -41.07%
- COc1ccc(OC)c(S(=O)(=O)NC(=O)C(C)OC)c1 (centres undefined) | -13.28%
- CN(C)c1ncc(CN2CCC(c3nnsc3S(C)(=O)=O)CC2)cn1 | 2.008%
- CN1CCC2(CCCN(c3nccc(C(F)(F)F)n3)C2)CC1.O=C(O)C(F)(F)F | 3.781%
- O=C1COC2(CCN(C(=O)c3ccoc3)CC2)CN1Cc1cccnc1 | -41.06%
- CN(C)CCN(Cc1ccc(C#N)cc1)C(=O)c1ccn(C)c(=O)c1 | -49.71%
- [H][C@@]12CS(=O)(=O)C[C@]1([H])N(C(=O)c1ccc3c(c1)ncn3C)CCN2CCO | -69.67%
- CC1(C)CNC(=O)c2nc(-c3ccccc3)[nH]c2C1 | -21.93%
- CCS(=O)(=O)NC1CCCN(Cc2ccn(C)c(=O)c2)C1 (centres undefined) | -37.35%
- Cn1c(C2CC2)nc2c1CCN(CCOc1ccc(C#N)cc1)C2 | 41.84%
- Cc1oc(-c2cc(F)cc(F)c2)nc1CN1C[C@@H](C)NC[C@@H]1C | 16.81%
- O=C(C1CCCCC1)N1CCC(n2nc(-c3ccco3)ccc2=O)CC1 | -17.88%
- CCOCC1CN(CCN2CCCCC2)Cc2cnn(C)c21.O=C(O)C(F)(F)F.O=C(O)C(F)(F)F.O=C(O)C(F)(F)F (centres undefined) | -11.92%
- CC1CCC(NS(=O)(=O)CC(=O)NCC2CCC2)CC1 (centres undefined) | -21.21%
- COc1cc(Cl)c(C)cc1NC(=O)CCNc1ccc(C#N)cn1 | -59.6%
- CN1CCc2onc(CNc3ncccn3)c2C1.O=C(O)C(F)(F)F.O=C(O)C(F)(F)F | -34.23%
- CCC(C)NC(=O)c1nnn(-c2cccc3c2CCN(C)C3)c1C (centres undefined) | 31.65%
- Cc1ccc(N2CCCc3sc(C(=O)NCCC#N)nc32)nn1.O=C(O)C(F)(F)F | 3.311%
- COc1ccc(C2Nc3ccccc3NC3=C2C(=O)NC3)cc1OC (centres undefined) | 23.53%
- O=C(NCCC1CCCCO1)c1coc(COc2ccc(F)cc2)n1 (centres undefined) | -15.65%
- CS(=O)(=O)N1CCCC(c2cncc(Nc3ccccn3)n2)C1 (centres undefined) | -5.752%
- CNc1nc(C)cc(N2CCC(C(=O)O)(n3ccc(C(C)C)n3)CC2)n1 | -5.968%
- COCCN(C)CCN1CC2(CCN(C3CCCNC3)CC2)OC1=O (centres undefined) | -16.22%
- CCc1nc(CN2CCCC(N(C)Cc3nc(C)c(C)o3)C2)no1 (centres undefined) | -38.63%
- COc1cccc(S(=O)(=O)NC(=O)CC2CCCC2)c1 | -37.31%
- O=c1[nH][nH]cc1-c1ccnc(NCCN2CCCCC2)n1 | -15.44%
- C1CN(CC2CC2)C(COCC2CC2)c2nnn(CC3CC3)c21.O=C(O)C(F)(F)F (centres undefined) | 42.25%
- CC(=O)N1CC2(CCN(C(=O)c3cccc4[nH]ccc34)CC2)C1 | -14.35%
- CCN1CCc2cc(C(=O)N(C)C)c(NCC3CC3)nc2CC1 | -74.28%
- O=C(CN1CC(n2cccn2)C1)NCC1(c2ccccc2)CCC1 | -91.93%

Some entries from above, unchanged:

- COc1ccc(C2Nc3ccccc3NC3=C2C(=O)NC3)cc1OC (centres undefined) | 23.53%
- Cn1c(C2CC2)nc2c1CCN(CCOc1ccc(C#N)cc1)C2 | 41.84%
- CCC(C)NC(=O)c1nnn(-c2cccc3c2CCN(C)C3)c1C (centres undefined) | 31.65%
- Cc1oc(-c2cc(F)cc(F)c2)nc1CN1C[C@@H](C)NC[C@@H]1C | 16.81%
- Cc1ncsc1-c1nnc(C2CCCN2C(=O)CCn2cccn2)o1 (centres undefined) | 21.42%

Source: ChEMBL document CHEMBL3988442, “University of Dundee, Small-Polar-MMV Screening Library” (2021).